In paper PMC12327844:
No constants are given. Whether binding was seen depends on the method and setting. Binding calls can cover weak binding; strength is not graded here.

Sequences of proteins named here, by UniProt entry; tags and fusion partners are left off. A change or cut given only in a name is not applied to a line headed by its entry.
UniProt A4IMB4: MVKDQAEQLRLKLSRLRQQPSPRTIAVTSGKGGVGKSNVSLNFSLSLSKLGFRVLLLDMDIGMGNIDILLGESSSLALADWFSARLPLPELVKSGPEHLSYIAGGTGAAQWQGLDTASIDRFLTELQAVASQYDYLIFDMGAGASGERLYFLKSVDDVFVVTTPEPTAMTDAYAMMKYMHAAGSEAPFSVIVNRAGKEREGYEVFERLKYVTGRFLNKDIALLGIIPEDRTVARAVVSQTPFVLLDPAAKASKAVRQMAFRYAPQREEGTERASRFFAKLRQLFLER

B1: GtGpsB (protein, UniProt A4IN56 1-98)
chain: MSANQVKLTPKDILEKEFKVSMRGYNQDEVDQFLDIVIKDYEAFQQELDELRQENARLKRQVEELQKRPTTPTGTTNYDILQRLSNLEKHVFGRKLYE
B2: GtFliY (protein, UniProt A0ABY9QFT0 1-394)
chain: MMNDGMLSQDEIDALLRGMDDSDHVPALHDIFTPLEQDAIGEIGNISFGSSATALSTLLNQKVEITTPSVSVVERKRVADEFPRPYVAIQVNYTEGFLGTNLLVIEQQDAAVIADLMLGGDGTTADSSLGEIQLSAVQEAMNQMMGSAATSMSTIFNKRVDISPPTLHLLDLTEGKGLEYLPDEDFFIKVSFRLKIGALVDSNIMQLLPIDFAKELVTHLLGSSAEAAGTLEKEENIDPSSAGAVPREELQPAPAYAHASDGEFSSAASRFTNEPVGGRSKEEESVAERHIQAADFAEFDDPPLAATEARNLELLFDVPLQVTVELGRTKRSVQEILQLSAGSIIELDKLAGEPVDIFVNNKLIAKGEVVVIDENFGVRITDIVSQNDRLKRLK

Legend:
[1] = biological target: GtFlhG (Geobacillus thermodenitrificans NG80-2) (UniProt A4IMB4); assay: pull-down; GST pulldown with 2 mM ATP; 1 nmol GST-tagged bait on glutathione agarose beads, 10 nmol prey; SEC buffer, room temperature; Coomassie-stained SDS-PAGE; both purified
[2] = biological target: GST-tagged GtFlhG (Geobacillus thermodenitrificans NG80-2) (UniProt A4IMB4); assay: as above
[3] = biological target: GST-tagged GtFlhG (Geobacillus thermodenitrificans NG80-2) (UniProt A4IMB4); assay: pull-down; competition pulldown: GST-GtFlhG as bait, GtGpsB and GtFliY as prey, GtFliY in increasing amounts (1, 5 and 10 nmol), 2 mM ATP; SDS-PAGE and Western blot with a 6x-His tag-specific antibody (Figure S11b); both purified
[4] = biological target: GST-tagged GtFlhG (Geobacillus thermodenitrificans NG80-2) (UniProt A4IMB4); assay: pull-down; GST pulldown, nucleotide not stated for these panels (Figure S6, Figure 3b); GST-tagged bait on glutathione agarose beads; SEC buffer, room temperature; Coomassie-stained SDS-PAGE; both purified
[5] = biological target: GST-tagged GtFlhG (Geobacillus thermodenitrificans NG80-2) (UniProt A4IMB4); assay: pull-down; GST pulldown with 2 mM ADP; 1 nmol GST-tagged bait on glutathione agarose beads, 10 nmol prey; SEC buffer, room temperature; Coomassie-stained SDS-PAGE; both purified

Binder	binding [1]	binding [2]	binding [3]	binding [4]	binding [5]
B1	binds	binds	binds	binds	binds weakly
B2	binds		binds		
